From PMC7994622, “Eryptosis and Malaria: New Experimental Guidelines and Re-Evaluation of the Antimalarial Potential of Eryptosis Inducers” (Frontiers in Cellular and Infection Microbiology, 2021)
Structures can show the parent of a compound that is named as a salt. Where two headings read alike, the source gives them in different places.

Test system: P. falciparum
Experiment: Parasite growth inhibition assay (SYBR Gold, 72 h)
Assay type: cell-based, Plasmodium falciparum 3D7
Protocol: Use of human erythrocytes was approved by the La Trobe University Research Ethics Committee (ethics number HEC17‐013) and an Australian Red Cross Blood Service Agreement (Deed 19-05VIC-01). Red blood cell populations are intrinsically heterogeneous and variable between donors, therefore each experiment presented in this study was conducted a minimum of three independent times, each with a different batch of blood. Human red cells were processed as soon as possible upon collection to minimize erythrocyte aging. Naïve (non-infected) erythrocytes and Plasmodium falciparum 3D7-infected erythrocytes were cultured at 37°C, in low oxygen conditions (1% O2, 5% CO2, 94% N2), at 4% or 0.4% hematocrit, in incomplete RPMI media (iRPMI: RPMI 1640 HEPES, 50 mg/L hypoxanthine, 10 mg/L gentamicin, pH 6.74), complete RPMI media (cRPMI: incomplete RPMI supplemented with 2.25 g/L sodium bicarbonate and 5 g/L AlbuMAX II), or Ringer solution (1mM CaCl2, 5mM glucose, 32 mM HEPES pH 7.4, 5 mM KCl, 1mM MgSO4, 125mM NaCl). P. falciparum standard in vitro culture conditions were conducted as previously described ([Trager and Jensen, 1976]).
Compound-induced parasite growth inhibition was measured as previously described ([Morahan et al., 2020]). Briefly, an asynchronous parasite culture at 0.25% parasitemia and 2% hematocrit was incubated in a 96-well plate with a two-fold serial dilution of compound over 72 h in standard culture conditions (cRPMI, 37°C, low oxygen). Compounds (at 10 mM in DMSO) were added to the first well of the dilution series to produce a 50 µM drug concentration (and 0.5% (v/v) DMSO) and diluted two-fold until a concentration of 0.19 nM compound was reached. Each condition was conducted in triplicates, subject to a freeze/thaw cycle and incubated with the DNA intercalant SYBR Gold following manufacturer instructions (SYBR™ Gold Nucleic Acid Stain, Invitrogen). The average fluorescence between triplicates was measured at 495 nm using a CLARIOstar® microplate reader and analyzed as a proxy of parasite replication.

SMILES | IC50 (Plasmodium falciparum, asynchronous culture, cRPMI, up to 50 µM, N=5, read-out: P. falciparum IC50) | IC50 (asynchronous culture, cRPMI, up to 50 µM, N=5, listed as amiodarone, read-out: P. falciparum IC50) | IC50 (asynchronous culture, cRPMI, up to 50 µM, N=5, read-out: P. falciparum IC50) | IC50 (read-out: P. falciparum IC50, asynchronous culture, cRPMI, up to 50 µM, N=5) | IC50 (read-out: P. falciparum IC50, asynchronous culture, cRPMI, up to 50 µM, N=5, listed as benzethonium)
CCCCc1oc2ccccc2c1C(=O)c1cc(I)c(OCCN(CC)CC)c(I)c1 [Amiodarone, amiodarone HCl] | ~2 µM | ≤ 2 µM | 2.1 µM | – | –
CC(C)(C)CC(C)(C)c1ccc(OCCOCC[N+](C)(C)Cc2ccccc2)cc1 [Benzethonium, benzethonium chloride] | – | – | – | 0.49 µM | ≤ 2 µM
